Measured values taken from PubChem BioAssay AID504467 (National Center for Advancing Translational Sciences (NCATS), 2011).
Out of some 330,000 compounds screened, about 7,700 (2.3%) were called active. This list was built around the results that the source calls inconclusive (neither active nor inactive); the mix of calls is not that of the screen. Calls follow the shape of the dose curve; as a rule, active = well fitted inhibition curve with a large enough effect; inconclusive = small, poorly fitted or top-dose-only effect, or effect the other way; inactive = flat fitted curve, though single readings scatter. Potencies beside an inconclusive call are fits to weak or partial responses and may not hold up.

Test: qHTS screen for small molecules that inhibit ELG1-dependent DNA repair in human embryonic kidney (HEK293T) cells expressing luciferase-tagged ELG1; also: nearly all actives have a fitted effect of over 55% in size
Conditions: HEK293T ELG1-luciferase reporter, luminescence, 16 h, DNA damage induced by 5-fluorouridine; activity change, negative = inhibition: at 46.1 µM (top of the series)
Summary of the method: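 Step one: seed 2,000 cells per well. Step two: pin-transfer compound or DMSO alongside 5-fluorouridine. Step three: incubate 16 hr, 37 °C, 5% CO2. Step four: add ONE-Glo, wait 30 min, read luminescence.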
% is scaled to controls: 0 for no effect and ±100 for the full control effect; potency is read from the fitted curve at half-maximal effect.

| Compound | Potency | activity change, negative = inhibition |
| --- | --- | --- |
| Cc1ccc(-c2nn(-c3ccccc3)cc2C(=O)N2CCOCC2)cc1C | inconclusive: 25.9 µM [inhibitor, partial curve, poor fit] | – |
| CCNC(=S)NNC(=O)c1ccncc1 | – | inactive: 7.97% |
| C=CCn1c(NCc2ccc(N(C)C)cc2)nc2ccccc21 | inconclusive: 18.4 µM [activator, single point] | – |
| COc1cc(OC)c2c(C)cc(=O)oc2c1 | inconclusive: 16.4 µM [activator, partial curve] | – |
| COC(=O)C(NC(=O)c1ccccc1)c1ccccc1 (stereo unspecified) | – | inactive: 15.6% |
| CC1CC(C)CN(c2oc(-c3ccco3)nc2C#N)C1 (stereo unspecified) | – | inactive: 5.39% |
| COc1cccc(-c2ccc(NC(=O)C3CCCN(CCCn4nc(C)cc4C)C3)cc2)c1 (stereo unspecified) | inconclusive: 16.4 µM [activator, single point] | – |
| Cc1ccc(C(=O)NCCc2csc(C)n2)cc1 | inconclusive: 23.1 µM [activator, partial curve] | – |
| COc1cccc(/C=C/c2ccc3cccc(O)c3n2)c1OC | inconclusive: 20.6 µM [activator, partial curve] | – |
| Cc1ccc(S(=O)(=O)Nc2cccc(S(=O)(=O)N3CCCC3)c2)cc1C | – | inactive: -6.47% |
| CCOc1ccc2nc3sc(C(=O)N4CCOCC4)c(N)c3cc2c1 | – | inactive: 9.96% |
| CCSc1nnc(NC(=O)c2cc(C)on2)s1 | inconclusive: 16.4 µM [activator, partial curve] | – |
| CC(=O)NC(=S)Nc1ccc(NC(=O)c2cccnc2Cl)cc1 | inconclusive: 25.9 µM [activator, single point] | – |
| CCC(C(=O)Nc1ccc2c(c1)OCCO2)c1ccccc1 (stereo unspecified) | inconclusive: 20.6 µM [activator, partial curve, poor fit] | – |
| COc1cccc(CN(C)CC(=O)Nc2c(C)cccc2C(C)C)c1 | inconclusive: 18.3 µM [inhibitor, single point] | – |
| Cc1cccnc1CCNCc1c(C(=O)N2C[C@@H](C)O[C@@H](C)C2)nc2ccc(Cl)cn12 | – | inactive: -3.21% |
| COc1ccc(CCN(Cc2cccs2)S(=O)(=O)c2ccc(-n3cnnn3)cc2)cc1OC | active: 16.4 µM | – |
| c1cncc(CNc2ncnc3sc4c(c23)CCC4)c1 | inconclusive: 16.4 µM [inhibitor, single point] | – |
| O=C(Nc1cccnc1)Nc1ccccc1Cl | inconclusive: 23.1 µM [activator, single point] | – |
| COCC(=O)N1CCCC(N(C)CCc2ccc(OC)c(OC)c2)C1 (stereo unspecified) | inconclusive: 10 µM [activator, partial curve, poor fit] | – |
| COC(=O)c1ccc(Cn2cnc3c(cnn3-c3ccc(F)cc3)c2=O)o1 | – | inactive: -1.89% |
| CC(=O)N1CCCc2ccc(NS(=O)(=O)c3ccccc3)cc21 | inconclusive: 13 µM [activator, single point] | – |
| CC(C)N(Cc1nc(-c2ccc(Cl)cc2)no1)C(=O)CCCN1C(=O)c2ccccc2C1=O | active: 23.1 µM | – |
| Cc1ccc(S(=O)(=O)N2CCN(Cc3csc(C)n3)CC2)cc1 | – | inactive: 0.567% |

Among those listed so far, these contain a furan ring, fused or not:

| Compound | Potency | activity change, negative = inhibition |
| --- | --- | --- |
| CC1CC(C)CN(c2oc(-c3ccco3)nc2C#N)C1 (stereo unspecified) | – | inactive: 5.39% |
| COC(=O)c1ccc(Cn2cnc3c(cnn3-c3ccc(F)cc3)c2=O)o1 | – | inactive: -1.89% |

(listing goes on)

| Compound | Potency | activity change, negative = inhibition |
| --- | --- | --- |
| CCOC(=O)c1c(-c2ccccc2)csc1NC(=O)COc1ccc2c(C)cc(=O)oc2c1 | inconclusive: 5.8 µM [inhibitor, full curve] | – |
| CC(C)C[C@H](NC(=O)OC(C)(C)C)C(=O)N[C@@H](CO)[C@H](O)[C@@H]1C[C@@H]1C(=O)N1CCCC1 | inconclusive: 6.51 µM [activator, single point] | – |
| Nc1cc(-c2ccc(Br)cc2)nn1Cc1ccccc1 | inconclusive: 29.1 µM [activator, single point] | – |
| Cn1c(=O)c2c(-c3ccccc3)n(N3CCOCC3)cc2n(C)c1=O | – | inactive: 13.4% |
| CC1(C)Cc2c(sc3nc(N/N=C/c4ccccc4)[nH]c(=O)c23)CO1 | – | inactive: 2.21% |
| COC(=O)c1ccccc1NC(=O)C1CCN(S(=O)(=O)c2cc(C)ccc2OC)CC1 | inconclusive: 10.3 µM [inhibitor, single point] | – |
| OCCCn1c(-c2ccccc2)n[nH]c1=S | inconclusive: 23.1 µM [activator, single point] | – |
| O=C(Nc1ccc2c(c1)OCCO2)C1CCN(C(=O)c2ccccc2)CC1 | inconclusive: 12.6 µM [activator, partial curve, poor fit] | – |
| S=C(Nc1cc(Cl)ccc1Oc1ccccc1)N1CCN(c2ccccn2)CC1 | – | inactive: -14.2% |
| COc1ccc(NC(=O)c2ccc3[nH]c(C)c(C)c3c2)cc1 | inconclusive: 16.4 µM [activator, partial curve] | – |
| COc1ccc(C2c3[nH]c4ccccc4c3CCN2C(=O)c2cc3ncccn3n2)c(F)c1 (stereo unspecified) | inconclusive: 29.1 µM [inhibitor, single point] | – |
| O=C(Nc1ccccc1C(=O)O)c1ccc(Br)o1 | inconclusive: 18.4 µM [activator, single point] | – |
| Cc1cc(C)c2c(N=CN(C)C)c(C(=O)N3CCN(c4ncccn4)CC3)sc2n1 | inconclusive: 23.1 µM [inhibitor, single point] | – |
| O=C(O)C1=C[C@H](c2coc3ccccc3c2=O)C[C@H](OCc2ccc(CO)cc2)O1 | – | inactive: 17.4% |
| COc1ccccc1CC(=O)NC1CCCc2ccccc21 (stereo unspecified) | – | inactive: -4.15% |
| COc1ccccc1OCC(=O)Nc1cccc(-c2nnc(-c3ccco3)o2)c1 | inconclusive: 29.1 µM [inhibitor, single point] | – |
| COc1ccccc1NS(=O)(=O)c1ccc(C)c(NC(=O)NC2CCCCC2)c1 | inconclusive: 32.6 µM [inhibitor, single point] | – |
| CCCOc1cccc(C(=O)NCCNC(=O)c2ccco2)c1 | – | inactive: -2.37% |
| O=C(COc1ccc(F)cc1)N(Cc1ccco1)C1CCS(=O)(=O)C1 (stereo unspecified) | – | inactive: 0% |
| COc1cccc(OCCN2CCN(c3ncnc4c3cnn4-c3ccccc3)CC2)c1 | inconclusive: 7.31 µM [inhibitor, single point] | – |
| Cc1cccc2cc(CN(CC(C)C)S(=O)(=O)c3ccccc3)c(=O)[nH]c12 | inconclusive: 23.1 µM [inhibitor, single point] | – |
| CCOc1cc(NC(=O)CCl)c(OCC)cc1NC(C)=O | inconclusive: 29.1 µM [inhibitor, single point] | – |
| Cc1cc(C(=O)OCC(=O)NCc2ccccc2Cl)c(C)o1 | – | inactive: 1.51% |
| c1ccc(CSc2ccc(-c3ccco3)nn2)cc1 | inconclusive: 4.11 µM [activator, partial curve] | – |

Exported field by field: 2 of the compounds above.
CCCOc1cccc(C(=O)NCCNC(=O)c2ccco2)c1
  activity change, negative = inhibition: inactive: -2.37%
O=C(COc1ccc(F)cc1)N(Cc1ccco1)C1CCS(=O)(=O)C1 (stereo unspecified)
  activity change, negative = inhibition: inactive: 0%

Next part.

| Compound | Potency | activity change, negative = inhibition |
| --- | --- | --- |
| COc1ccc(Br)cc1[C@H]1[C@H]2C=CC[C@@H](C)[C@@H]2C(=O)N1Cc1ccccc1 | – | inactive: -26.1% |
| CC1Cc2cc(S(=O)(=O)NCCc3ccccc3)ccc2N1C(=O)C1CC1 (stereo unspecified) | – | inactive: 3.71% |
| O=C(O)/C=C/c1cn(Cc2ccccc2)nc1-c1ccccc1 | – | inactive: 14.1% |
| COC(=O)[C@@H]1CC[C@H](C)[C@@H](c2ccc(C)cc2)N1C(=O)c1ccc(/C=N/OC[C@@H](O)COCc2ccco2)cc1 | inconclusive: 29.1 µM [inhibitor, single point] | – |
| CCOc1ccccc1C(=O)NC1CC2CCCC(C1)N2C1CC1 (stereo unspecified) | – | inactive: 0.478% |
| O=C(O)COc1ccc(/C=N/NC(=O)COc2nsnc2N2CCOCC2)cc1 | – | inactive: 4.11% |
| O=S(=O)(N/N=C1\CC(c2ccccc2)Oc2ccccc21)c1ccccc1 (stereo unspecified) | – | inactive: 0.355% |
| CCOC(=O)c1sc(NC(=O)c2ccc3ncsc3c2)nc1C | inconclusive: 1.46 µM [activator, full curve] | – |
| COc1ccc(N(C(=O)CNC(=O)c2ccco2)C(C(=O)NCC2CCCO2)c2ccccc2)cc1OC (stereo unspecified) | – | inactive: 0.347% |
| O=C(c1ccc(Oc2ccccc2)cc1)c1nc2c(n1O)CCCC2 | inconclusive: 23.1 µM [activator, single point] | – |
| O=C(CSc1nnc(NC2CCCCC2)s1)Nc1ccc2c(c1)C(=O)c1ccccc1C2=O | inconclusive: 29.1 µM [inhibitor, single point] | – |
| Cc1c(NC(=O)Nc2cccc(C#N)c2)c(=O)n(-c2ccccc2)n1C | – | inactive: 14.4% |
| O=C(OCC1OC(n2cnc3c(N(C(=O)c4ccccc4)C(=O)c4ccccc4)ncnc32)C(O)C1F)c1ccccc1 (stereo unspecified) | – | inactive: -17.3% |
| CC[C@H]1OC(=O)C[C@@H](O)[C@H](C)[C@@H](O[C@@H]2O[C@H](C)C[C@H](N(C)C)[C@H]2O)[C@@H](CC=O)C[C@@H](C)C(=O)C=C[C@]2(C)O[C@H]2[C@@H]1C | inconclusive: 25.9 µM [inhibitor, single point] | – |
| CN1C(=O)C(C)(C)c2cc(S(=O)(=O)N3CCC(C(=O)NCc4ccc(F)cc4)CC3)ccc21 | – | inactive: 16.8% |
| CCN(CC(=O)Nc1ccccc1C(F)(F)F)C(=O)CCS(=O)(=O)c1ccc(C)cc1 | – | inactive: 2.54% |
| C/C(=N\NC(=O)c1ccn(C)n1)c1ccc(NC(=O)c2cccc(F)c2)cc1 | inconclusive: 18.3 µM [activator, partial curve] | – |
| Nn1cc(-c2ccccc2)nc1SCC(=O)N1CCN(S(=O)(=O)c2ccc3ccccc3c2)CC1 | inconclusive: 29.1 µM [inhibitor, single point] | – |
| Cc1ccc(S(=O)(=O)N2[C@@H](c3ccccc3)C(C(=O)O)=CC[C@H]2c2ccc3c(c2)OCO3)cc1 | inconclusive: 0.794 µM [inhibitor, single point] | – |
| COc1ccc(N2C(=O)C3CCCN3C2c2cc(OC)c(OC)cc2OC)cc1 (stereo unspecified) | inconclusive: 7.31 µM [inhibitor, partial curve] | – |
| COCC(C)NC(=O)c1noc2c1CCc1cc(OC)ccc1-2 (stereo unspecified) | inconclusive: 20.6 µM [activator, partial curve] | – |
| COc1cccc(CCNC(=O)CCc2nnc(Cc3cc(OC)ccc3OC)o2)c1 | inconclusive: 29.1 µM [activator, single point] | – |
| C#CCNC(=O)C1=C[C@H](c2ccc(C(F)(F)F)cc2)[C@@H](CCCO)[C@H](OCC)O1 | – | inactive: -22.3% |
